# Data published in publication PMC12152636.
# Sequences of proteins named here, by UniProt entry; tags and fusion partners are left off. A change or cut given only in a name is not applied to a line headed by its entry. A line that says so, or that is headed by a name, gives the form on record, which may keep a tag or linker. Residues count along the entry.
# CTD2′ (residues 1657 to 1739 of the D. melanogaster Rpb1 C-terminal domain), unphosphorylated (P04052, form named): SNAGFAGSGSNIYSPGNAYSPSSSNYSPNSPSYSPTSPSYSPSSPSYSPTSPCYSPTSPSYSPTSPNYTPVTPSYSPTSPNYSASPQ
# These are yes or no findings as the source states them, for the method shown.
# Target: CTD2′ (residues 1657 to 1739 of the D. melanogaster Rpb1 C-terminal domain), unphosphorylated (D. melanogaster) (UniProt P04052)
# Experiment: SEC-MALS; Superdex S-100 Increase column, 25 mM sodium phosphate pH 7.5, 50 mM NaCl, 4 mM DTT; 20 μl injected, sample concentration 10 mg/ml (concentrated to 1.6 mM); flow 0.5 ml/min; molar mass 8.8 kDa, consistent with a monomer; both purified
substance,measurement,value
"CTD2′ (residues 1657 to 1739 of the D. melanogaster Rpb1 C-terminal domain), unphosphorylated (from UniProt P04052 1657-1739) (domain or fragment)",binding,no binding (tested: 10 mg/ml (1.6 mM) loaded)
